Data: article PMC6299093

Tested on: BRCA1 + BARD1
Experiment: competition with a labelled probe
Conditions: 25 mM Tris-HCl pH 7.5, 90 mM KCl, 1 mM EDTA, 1 mM DTT, 0.1 mg/ml BSA, RNaseOUT, 37 C 30 min, 10 nM substrate (competition: 1 nM, 10 + 10 min), 6% native PAGE at 4 C, recombinant protein

| Sequence | binding result (cold dsDNA against 1 nM labelled DNA:RNA, modest preference for hybrid over dsDNA) | binding result (cold hybrid against 1 nM labelled dsDNA, modest preference for hybrid, second strand RNA, DNA:RNA hybrid, letters put together from the description) |
| --- | --- | --- |
| GACGTCATAGACGATTACATTGCTAGGACATGCTGTCTAGAGACTATCGC (double strand) [unlabelled dsDNA competitor] | binds more weakly | – |
| GACGTCATAGACGATTACATTGCTAGGACATGCTGTCTAGAGACTATCGC / GCGAUAGUCUCUAGACAGCAUGUCCUAGCAAUGUAAUCGUCUAUGACGUC [unlabelled DNA:RNA hybrid competitor] | – | binds |

The exact form of at least one protein or probe is not confirmed. The comparison behind a weaker result is the experiment's own reference, which may not be listed here. At least one verdict rests on a figure or table, not on a statement of the authors.
